These results are taken from US20180243435A1 (AbbVie / Abbott, published 2018).

Sequences of proteins named here, by UniProt entry; tags and fusion partners are left off. A change or cut given only in a name is not applied to a line headed by its entry.
UniProt Q9NYJ7: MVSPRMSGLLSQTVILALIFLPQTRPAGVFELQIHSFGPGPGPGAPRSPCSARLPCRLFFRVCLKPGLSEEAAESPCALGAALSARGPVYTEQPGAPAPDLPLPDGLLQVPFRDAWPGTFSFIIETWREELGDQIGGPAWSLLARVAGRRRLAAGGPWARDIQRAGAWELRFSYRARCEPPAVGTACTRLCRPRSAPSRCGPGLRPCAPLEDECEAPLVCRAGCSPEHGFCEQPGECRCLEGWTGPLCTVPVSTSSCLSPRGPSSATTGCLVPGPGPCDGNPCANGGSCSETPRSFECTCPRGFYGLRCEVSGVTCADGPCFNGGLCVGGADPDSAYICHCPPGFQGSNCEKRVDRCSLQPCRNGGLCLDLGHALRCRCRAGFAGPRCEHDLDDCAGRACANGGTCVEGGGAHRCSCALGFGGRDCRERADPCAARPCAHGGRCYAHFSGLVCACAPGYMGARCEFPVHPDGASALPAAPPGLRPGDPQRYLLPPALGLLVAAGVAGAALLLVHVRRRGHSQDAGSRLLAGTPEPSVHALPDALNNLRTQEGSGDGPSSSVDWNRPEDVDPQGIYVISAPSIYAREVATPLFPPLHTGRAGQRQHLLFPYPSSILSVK

B1: SC16.20 (antibody, V domains shown)
VH: QVQLQQSGTELVRPGTSVRVSCKASGYAFGNHLIEWVKQRPGQGLEWIGVINPGTGGTHYNEKFKDKARLTADKSSNTAYMHLNSLTSDDSAVYFCARSPYDYHEGAMDYWGQGTSVTVSS
VL: EIQMTQSPSSMSASLGDRITITCQATQDIVKNLNWYQQKPGKPPSFLIYYATELAEGVPSRFSGSGSGSDYSLTIRNLESEDFADHYCLQFYEFPFTFGAGTKLELK
B2: SC16.18 (antibody, V domains shown)
VH: EVKLEESGGGLVQPGESMKLSCAASGFTFSDAWMDWVRQSPEKGLEWVAEIRNKANNHATYYAESVKGKFTISRDDSKSRVYLQMNNLRAADTGIYYCTAYSNFAYWGQGTLVTVST
VL: DIQMTQTTSSLSASLGDRVTISCRASQNIINYLNWYQQKPDGTVKLLIYYTSRLHSGVPSRFSGSGSGTDYSLTISNLEPEDIATYYCQQYSERPYTFGGGTKLEIK
B3: SC16.35 (antibody, V domains shown)
VH: DVQLQESGPGLVKPSQSLSLTCTVTGYSITSDYAWNWIRQFPGNKLEWMGYISYSGSTSYNPSLKSRISITRDTSKNQFFLQLNSVTTEDTATYYCARFYYGSSYAMDYWGQGTSVTVSS
VL: DIQMTQTTSSLSASLGDRVTISCRASQDISNYLNWYQQKPDGTVKLLIYYTSRLHSGVPSRFSGSGSGTDYSLTISNLEQEDIATYFCQQGNTLPYTFGGGTKLEIK
B4: SC16.4 (antibody, V domains shown)
VH: QIQLVQSGPELKKPGETVKISCKASGYTFTDYSMHWVKQAPGKGLKWMGWINTETGEPGYADDFKGRFAFSLETSASTAYLQINNLKNEDTATYFCARYDGYAMDYWGQGTSVTVSS
VL: DIQMTQTTSSLSASLGDRVTISCRASQDISNYLNWYQQKPDGTVKLLIYYTSRLHSGVPSRFSGSGSGTDYSLTISNLELEDIATYFCQQGDMLPWTFGGGTKLEIK
B5: SC16.29 (antibody, V domains shown)
VH: QVQLQQSGAELARPGASVKLSCKASGYTFTDQYINWVKQRTGQGLEWIGEIYPGRGNTYYNEKFKGKATLTADKSSSTAYMQLSSLTSEDSAVYFCAREDGGYDDAWFAYWGQGTLVTVSA
VL: QIVLTQSPAIMSASPGEKVTITCSASSSVSYMHWFQQKPGTSPKLWIYTTSNLASGVPARFSGSGSGTSYSLTVSRMEAEDAATYYCQQRSLYPYTFGGGTKVEIK
B6: SC16.23 (antibody, V domains shown)
VH: QVTLKESGPGILQPSQTLSLTCSFSGFSLSTSNTGIGWIRQPSGTGLEWLAHIWWNDDKYYNPSLKSRLTISKETSNNQVFLKITNVDTADTASYFCVQIGRDYSNYAWYFDVWGAGTTVTVSS
VL: QIVLTQSPAIMSASPGEKVTLTCSASSSVSSRYLYWYQQKPGSSPKLWIYSTSNLASGVPARFSGSGSGTSYSLIISSMEAEDAASYFCHQWSNYPLTFGAGTKLELK
notes: murine hybridoma mAb
B7: SC16.22 (antibody, V domains shown)
VH: QVQLQQPGAELVKPGASVKLSCKASGYTFTTYWMHWVKQRPGQGLEWIGEIDPSDSYTYYNQKFKGKATLTVDKSSSTAYMQLSSLTSEDSAVYYCARGDYGNPYAMDYWGQGSSVTVSS
VL: DIQMTQTTSSLSASLGDRVTISCRASQDIKNYLNWYQQKPDGTVKPLIYYTSRVHSGVPSRFSGSGSGTDYSLTISNLEQEDIATYFCQQGYTLPFTFGSGTKLEIK
B8: SC16.34 (antibody, V domains shown)
VH: QIQLVQSGPELKRPGETVKISCKASGYTFTNYGMNWVKQAPGKGLKWMGWINTYTGDPTYADDFKGRFAFSLETSASTAYLQINNLKNEDTATYFCARIGGNSPSDYWGQGTSLTVSS
VL: SIVMTQTPKFLLVSAGDRVTITCKASQSVSNDVAWYQQKPGQSPKLLIYYASNRYSGVPDRFTGSGYGTDFTFTISTVQAEDLAVYFCQQDYSSPWTFGGGTKLEIK
notes: murine hybridoma mAb
B9: SC16.3 (antibody, V domains shown)
VH: QVTLKESGPGILQPSQTLSLTCSFSGFSLSTSGMGVGWIRQPSGKGLEWLAHIWWDDVKRYNPALKSRLTISKDTSSSQVFLKIASVDTADTATYYCARIADYGGDYYAMDYWGQGTSVTVSS
VL: QIVLTQSPAIMSVSLGERVTMTCTASSSVSSSYLHWYQQKPGSSPKLWIYSTSNLASGVPARFSGSGSGTSYFFTISSMEAEDAATYYCHQYHRSPFTFGAGTKLKIR
B10: SC16.30 (antibody, V domains shown)
VH: QVTLKESGPGILQPSQTLSLTCSFSGFSLSTSGMGVGWIRQPSGKGLEWLAHIWWDDVKRYKPALKSRLTVSKDTSSNQVFLKIATVDAADTGTYYCARIVDGHPPFAYWGQGTLVTVSA
VL: QIVLTQSPTIMSASLGERVTMTCTASSSVTSSYLHWYQQKPGSSPKLWIYSTSNLASGVPARFSGSGSGTSYSLTISSMEAEDAATYYCHQFHRSPFTFGSGTKLEIK
B11: SC16.31 (antibody, V domains shown)
VH: EVQLQQSGPELVKPGASVKISCKASGYSFSRFYMHWVKQSPENSLEWIGEINPSTGGTSYNQKFKGKATLTVDKSSSTAYMQLKSLTSEESAVYYCTRGYGSNWYFDVWGAGTTVTVST
VL: DIVLTQSPLSLPVNIGDQASISCKSTKSLLNSDGFTYLDWYLQRPGQSPQFLIYLVSNRFSGVPDRFSGSGSGTDFTLKISRVEAEDLGVYYCFQSNYLPLTFGAGTKLELR
B12: SC16.25 (antibody, V domains shown)
VH: QVTLKESGPGILQPSQTLSLTCSFSGFSLSTSGMGVGWIRQPSGEGLEWLTDIWWDDNKYYNPSLKSRLTISKDTSSNQVFLNITSVDTADTATYYCARRVNYYYDPYYAMDYWGQGTSVTVSS
VL: QIVLTQSPAIMSASPGEKVTMTCSASSSVSYMHWYQQKSGTSPKRWIYDSSKLASGVPARFSGSGSGTSYSLTISSMEAEDAATYYCQQWSSNPLTFGAGTKLELK
B13: SC16.19 (antibody, V domains shown)
VH: EVQLQQSGAELVRPGASVKLSCTASGFNIKDSLLHWVKQRPEKGLEWIGWIDPEDGETKYAPNFQDKATITTDSSSNTAYLQLISLTSVDTAIYYCAYGNYVRHFDYWGQGTTLTVSS
VL: DIQMTQSPSSLSASLGGKVTFTCKASQDIHKYVAWYQHKPGKGPRLLIHYTSTLQPGISSRFSGSGSGRDYSFSISNLEPEDIATYYCLQYNNLYTFGGGTKLEIK
B14: SC16.21 (antibody, V domains shown)
VH: QVQLQQSGPELVKPGASVKISCKASGYAFSSSWMNWVKQRPGKGLEWIGRIYPGDGDTNYNGKFKGKATLTADKSSSTAYMQLSSLTSEDSAVYFCAMGIYNYDGSRYYSMDYWGQGTSVTVSS
VL: DIVMTQSPSSLAMSVGQKVTMSCKSSQSLLNSSNQKNYLAWYQQEPGQSPKLLVSFASTRESGVPDRFTGSGSGTDFTLTISGVQAEDLAVYYCQQHYSIPLTFGAGTKLELK
B15: SC16.38 (antibody, V domains shown)
VH: EVQLQQSGAELVKPGASVKLSCTVSGFNIKDTYIHWVKQRPEQGLEWIGRIDPANGNTKYDPKFQGKATITADTSSNTAYLQLSSLTSEDTAVYYCARPTGYFEYWGQGTTLTVSS
VL: QIVLTQSPAIMSASPGEKVTMTCSASSSINYMHWYQQKPGTSPKRWIYDTSKLASGVPARFSGSGSGTSYSLTISSMEAEDAATYYCHQRSTWTFGGGTKLEIK

Results are given in words; binding and its absence hold for the method and conditions named. Some results given as binding are weak or reduced against the parent protein; the word gives no strength.

The target of this experiment is human DLL3 (human) (UniProt Q9NYJ7). Put plainly: hybridoma screening: ELISA on immobilized DLL3 or flow cytometry on HEK-293T cells overexpressing hDLL3.
Turning to B1, the binding entry is given as “binds”.
The value for B2 was “binds”; that for B3 was “binds”; that for B4 was “binds”.
Then B5, with “binds”; and B6, with “binds”; and B7, with “binds”.
The value for B8 was “binds”; that for B9 was “binds”.
On to B10, for which the binding result is “binds”.
Then B11, with “binds”.
Then B12, with “binds”; and B13, with “binds”.
Then B14, with “binds”; and B15, with “binds”.
